To fix the notation:
B1: HA-tagged SLITRK5 G722Δ (rare amino acid deletion from an OCD subject) (receptor, UniProt O94991 41-958)
chain: IDYYGEICDNACPCEEKDGILTVSCENRGIISLSEISPPRFPIYHLLLSGNLLNRLYPNEFVNYTGASILHLGSNVIQDIETGAFHGLRGLRRLHLNNNKLELLRDDTFLGLENLEYLQVDYNYISVIEPNAFGKLHLLQVLILNDNLLSSLPNNLFRFVPLTHLDLRGNRLKLLPYVGLLQHMDKVVELQLEENPWNCSCELISLKDWLDSISYSALVGDVVCETPFRLHGRDLDEVSKQELCPRRLISDYEMRPQTPLSTTGYLHTTPASVNSVATSSSAVYKPPLKPPKGTRQPNKPRVRPTSRQPSKDLGYSNYGPSIAYQTKSPVPLECPTACSCNLQISDLGLNVNCQERKIESIAELQPKPYNPKKMYLTENYIAVVRRTDFLEATGLDLLHLGNNRISMIQDRAFGDLTNLRRLYLNGNRIERLSPELFYGLQSLQYLFLQYNLIREIQSGTFDPVPNLQLLFLNNNLLQAMPSGVFSGLTLLRLNLRSNHFTSLPVSGVLDQLKSLIQIDLHDNPWDCTCDIVGMKLWVEQLKVGVLVDEVICKAPKKFAETDMRSIKSELLCPDYSDVVVSTPTPSSIQVPARTSAVTPAVRLNSTGAPASLGAGGGASSVPLSVLILSLLLVFIMSVFVAAGLFVLVMKRRKKNQSDHTSTNNSDVSSFNMQYSVYGGGGTGGHPHAHVHHRGPALPKVKTPAGHVYEYIPHPLGHMCKNPIYRSREGNSVEDYKDLHELKVTYSSNHHLQQQQQPPPPPQQPQQQPPPQLQLQPGEEERRESHHLRSPAYSVSTIEPREDLLSPVQDADRFYRGILEPDKHCSTTPAGNSLPEYPKFPCSPAAYTFSPNYDLRRPHQYLHPGAGDSRLREPVLYSPPSAVFVEPNRNEYLELKAKLNVEPDYLEVLEKQTTFSQF
B2: HA-tagged wild type SLITRK5 (SLIT and NTRK-Like Family, Member 5), ancestral human allele (receptor, UniProt O94991 41-958)
chain: IDYYGEICDNACPCEEKDGILTVSCENRGIISLSEISPPRFPIYHLLLSGNLLNRLYPNEFVNYTGASILHLGSNVIQDIETGAFHGLRGLRRLHLNNNKLELLRDDTFLGLENLEYLQVDYNYISVIEPNAFGKLHLLQVLILNDNLLSSLPNNLFRFVPLTHLDLRGNRLKLLPYVGLLQHMDKVVELQLEENPWNCSCELISLKDWLDSISYSALVGDVVCETPFRLHGRDLDEVSKQELCPRRLISDYEMRPQTPLSTTGYLHTTPASVNSVATSSSAVYKPPLKPPKGTRQPNKPRVRPTSRQPSKDLGYSNYGPSIAYQTKSPVPLECPTACSCNLQISDLGLNVNCQERKIESIAELQPKPYNPKKMYLTENYIAVVRRTDFLEATGLDLLHLGNNRISMIQDRAFGDLTNLRRLYLNGNRIERLSPELFYGLQSLQYLFLQYNLIREIQSGTFDPVPNLQLLFLNNNLLQAMPSGVFSGLTLLRLNLRSNHFTSLPVSGVLDQLKSLIQIDLHDNPWDCTCDIVGMKLWVEQLKVGVLVDEVICKAPKKFAETDMRSIKSELLCPDYSDVVVSTPTPSSIQVPARTSAVTPAVRLNSTGAPASLGAGGGASSVPLSVLILSLLLVFIMSVFVAAGLFVLVMKRRKKNQSDHTSTNNSDVSSFNMQYSVYGGGGGTGGHPHAHVHHRGPALPKVKTPAGHVYEYIPHPLGHMCKNPIYRSREGNSVEDYKDLHELKVTYSSNHHLQQQQQPPPPPQQPQQQPPPQLQLQPGEEERRESHHLRSPAYSVSTIEPREDLLSPVQDADRFYRGILEPDKHCSTTPAGNSLPEYPKFPCSPAAYTFSPNYDLRRPHQYLHPGAGDSRLREPVLYSPPSAVFVEPNRNEYLELKAKLNVEPDYLEVLEKQTTFSQF
B3: HA-tagged SLITRK5 Q118H (pseudo-matched control mutation from the 1000 Genomes database) (receptor, UniProt O94991 41-958)
chain: IDYYGEICDNACPCEEKDGILTVSCENRGIISLSEISPPRFPIYHLLLSGNLLNRLYPNEFVNYTGASILHLGSNVIHDIETGAFHGLRGLRRLHLNNNKLELLRDDTFLGLENLEYLQVDYNYISVIEPNAFGKLHLLQVLILNDNLLSSLPNNLFRFVPLTHLDLRGNRLKLLPYVGLLQHMDKVVELQLEENPWNCSCELISLKDWLDSISYSALVGDVVCETPFRLHGRDLDEVSKQELCPRRLISDYEMRPQTPLSTTGYLHTTPASVNSVATSSSAVYKPPLKPPKGTRQPNKPRVRPTSRQPSKDLGYSNYGPSIAYQTKSPVPLECPTACSCNLQISDLGLNVNCQERKIESIAELQPKPYNPKKMYLTENYIAVVRRTDFLEATGLDLLHLGNNRISMIQDRAFGDLTNLRRLYLNGNRIERLSPELFYGLQSLQYLFLQYNLIREIQSGTFDPVPNLQLLFLNNNLLQAMPSGVFSGLTLLRLNLRSNHFTSLPVSGVLDQLKSLIQIDLHDNPWDCTCDIVGMKLWVEQLKVGVLVDEVICKAPKKFAETDMRSIKSELLCPDYSDVVVSTPTPSSIQVPARTSAVTPAVRLNSTGAPASLGAGGGASSVPLSVLILSLLLVFIMSVFVAAGLFVLVMKRRKKNQSDHTSTNNSDVSSFNMQYSVYGGGGGTGGHPHAHVHHRGPALPKVKTPAGHVYEYIPHPLGHMCKNPIYRSREGNSVEDYKDLHELKVTYSSNHHLQQQQQPPPPPQQPQQQPPPQLQLQPGEEERRESHHLRSPAYSVSTIEPREDLLSPVQDADRFYRGILEPDKHCSTTPAGNSLPEYPKFPCSPAAYTFSPNYDLRRPHQYLHPGAGDSRLREPVLYSPPSAVFVEPNRNEYLELKAKLNVEPDYLEVLEKQTTFSQF
B4: HA-tagged SLITRK5 N99K (rare non-synonymous mutation from an OCD subject) (receptor, UniProt O94991 41-958)
chain: IDYYGEICDNACPCEEKDGILTVSCENRGIISLSEISPPRFPIYHLLLSGNLLNRLYPKEFVNYTGASILHLGSNVIQDIETGAFHGLRGLRRLHLNNNKLELLRDDTFLGLENLEYLQVDYNYISVIEPNAFGKLHLLQVLILNDNLLSSLPNNLFRFVPLTHLDLRGNRLKLLPYVGLLQHMDKVVELQLEENPWNCSCELISLKDWLDSISYSALVGDVVCETPFRLHGRDLDEVSKQELCPRRLISDYEMRPQTPLSTTGYLHTTPASVNSVATSSSAVYKPPLKPPKGTRQPNKPRVRPTSRQPSKDLGYSNYGPSIAYQTKSPVPLECPTACSCNLQISDLGLNVNCQERKIESIAELQPKPYNPKKMYLTENYIAVVRRTDFLEATGLDLLHLGNNRISMIQDRAFGDLTNLRRLYLNGNRIERLSPELFYGLQSLQYLFLQYNLIREIQSGTFDPVPNLQLLFLNNNLLQAMPSGVFSGLTLLRLNLRSNHFTSLPVSGVLDQLKSLIQIDLHDNPWDCTCDIVGMKLWVEQLKVGVLVDEVICKAPKKFAETDMRSIKSELLCPDYSDVVVSTPTPSSIQVPARTSAVTPAVRLNSTGAPASLGAGGGASSVPLSVLILSLLLVFIMSVFVAAGLFVLVMKRRKKNQSDHTSTNNSDVSSFNMQYSVYGGGGGTGGHPHAHVHHRGPALPKVKTPAGHVYEYIPHPLGHMCKNPIYRSREGNSVEDYKDLHELKVTYSSNHHLQQQQQPPPPPQQPQQQPPPQLQLQPGEEERRESHHLRSPAYSVSTIEPREDLLSPVQDADRFYRGILEPDKHCSTTPAGNSLPEYPKFPCSPAAYTFSPNYDLRRPHQYLHPGAGDSRLREPVLYSPPSAVFVEPNRNEYLELKAKLNVEPDYLEVLEKQTTFSQF
B5: HA-tagged SLITRK5 P891L (pseudo-matched control mutation from the 1000 Genomes database) (receptor, UniProt O94991 41-958)
chain: IDYYGEICDNACPCEEKDGILTVSCENRGIISLSEISPPRFPIYHLLLSGNLLNRLYPNEFVNYTGASILHLGSNVIQDIETGAFHGLRGLRRLHLNNNKLELLRDDTFLGLENLEYLQVDYNYISVIEPNAFGKLHLLQVLILNDNLLSSLPNNLFRFVPLTHLDLRGNRLKLLPYVGLLQHMDKVVELQLEENPWNCSCELISLKDWLDSISYSALVGDVVCETPFRLHGRDLDEVSKQELCPRRLISDYEMRPQTPLSTTGYLHTTPASVNSVATSSSAVYKPPLKPPKGTRQPNKPRVRPTSRQPSKDLGYSNYGPSIAYQTKSPVPLECPTACSCNLQISDLGLNVNCQERKIESIAELQPKPYNPKKMYLTENYIAVVRRTDFLEATGLDLLHLGNNRISMIQDRAFGDLTNLRRLYLNGNRIERLSPELFYGLQSLQYLFLQYNLIREIQSGTFDPVPNLQLLFLNNNLLQAMPSGVFSGLTLLRLNLRSNHFTSLPVSGVLDQLKSLIQIDLHDNPWDCTCDIVGMKLWVEQLKVGVLVDEVICKAPKKFAETDMRSIKSELLCPDYSDVVVSTPTPSSIQVPARTSAVTPAVRLNSTGAPASLGAGGGASSVPLSVLILSLLLVFIMSVFVAAGLFVLVMKRRKKNQSDHTSTNNSDVSSFNMQYSVYGGGGGTGGHPHAHVHHRGPALPKVKTPAGHVYEYIPHPLGHMCKNPIYRSREGNSVEDYKDLHELKVTYSSNHHLQQQQQPPPPPQQPQQQPPPQLQLQPGEEERRESHHLRSPAYSVSTIEPREDLLSPVQDADRFYRGILEPDKHCSTTPAGNSLPEYPKFPCSPAAYTFSLNYDLRRPHQYLHPGAGDSRLREPVLYSPPSAVFVEPNRNEYLELKAKLNVEPDYLEVLEKQTTFSQF
B6: HA-tagged SLITRK5 E600K (rare non-synonymous mutation from an OCD subject) (receptor, UniProt O94991 41-958)
chain: IDYYGEICDNACPCEEKDGILTVSCENRGIISLSEISPPRFPIYHLLLSGNLLNRLYPNEFVNYTGASILHLGSNVIQDIETGAFHGLRGLRRLHLNNNKLELLRDDTFLGLENLEYLQVDYNYISVIEPNAFGKLHLLQVLILNDNLLSSLPNNLFRFVPLTHLDLRGNRLKLLPYVGLLQHMDKVVELQLEENPWNCSCELISLKDWLDSISYSALVGDVVCETPFRLHGRDLDEVSKQELCPRRLISDYEMRPQTPLSTTGYLHTTPASVNSVATSSSAVYKPPLKPPKGTRQPNKPRVRPTSRQPSKDLGYSNYGPSIAYQTKSPVPLECPTACSCNLQISDLGLNVNCQERKIESIAELQPKPYNPKKMYLTENYIAVVRRTDFLEATGLDLLHLGNNRISMIQDRAFGDLTNLRRLYLNGNRIERLSPELFYGLQSLQYLFLQYNLIREIQSGTFDPVPNLQLLFLNNNLLQAMPSGVFSGLTLLRLNLRSNHFTSLPVSGVLDQLKSLIQIDLHDNPWDCTCDIVGMKLWVEQLKVGVLVDEVICKAPKKFAKTDMRSIKSELLCPDYSDVVVSTPTPSSIQVPARTSAVTPAVRLNSTGAPASLGAGGGASSVPLSVLILSLLLVFIMSVFVAAGLFVLVMKRRKKNQSDHTSTNNSDVSSFNMQYSVYGGGGGTGGHPHAHVHHRGPALPKVKTPAGHVYEYIPHPLGHMCKNPIYRSREGNSVEDYKDLHELKVTYSSNHHLQQQQQPPPPPQQPQQQPPPQLQLQPGEEERRESHHLRSPAYSVSTIEPREDLLSPVQDADRFYRGILEPDKHCSTTPAGNSLPEYPKFPCSPAAYTFSPNYDLRRPHQYLHPGAGDSRLREPVLYSPPSAVFVEPNRNEYLELKAKLNVEPDYLEVLEKQTTFSQF

The chains behind the UniProt entries cited, without tags or fusion partners. Residues count along the entry.
UniProt Q16620, residues 32-822: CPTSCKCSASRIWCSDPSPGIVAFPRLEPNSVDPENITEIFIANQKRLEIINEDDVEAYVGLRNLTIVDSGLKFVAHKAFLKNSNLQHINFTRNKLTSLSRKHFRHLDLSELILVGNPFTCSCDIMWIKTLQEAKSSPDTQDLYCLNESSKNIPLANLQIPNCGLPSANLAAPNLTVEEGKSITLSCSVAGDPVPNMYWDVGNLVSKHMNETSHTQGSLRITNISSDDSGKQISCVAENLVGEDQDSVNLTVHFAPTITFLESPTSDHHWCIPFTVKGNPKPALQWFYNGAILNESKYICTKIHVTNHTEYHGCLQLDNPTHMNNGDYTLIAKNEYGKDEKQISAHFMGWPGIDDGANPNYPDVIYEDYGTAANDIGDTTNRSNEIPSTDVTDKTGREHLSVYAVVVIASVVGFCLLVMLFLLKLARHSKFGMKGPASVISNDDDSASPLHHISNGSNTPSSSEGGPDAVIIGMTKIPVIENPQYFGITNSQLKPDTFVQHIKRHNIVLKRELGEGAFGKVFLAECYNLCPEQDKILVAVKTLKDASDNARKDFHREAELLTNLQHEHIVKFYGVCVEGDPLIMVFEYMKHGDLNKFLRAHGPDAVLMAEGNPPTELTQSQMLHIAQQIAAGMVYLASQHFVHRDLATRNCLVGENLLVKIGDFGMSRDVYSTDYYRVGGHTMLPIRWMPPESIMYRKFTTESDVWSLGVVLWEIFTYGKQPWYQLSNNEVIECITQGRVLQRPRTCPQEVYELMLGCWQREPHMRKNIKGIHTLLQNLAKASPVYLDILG

No constants are given. Whether binding was seen depends on the method and setting. In cells and extracts the contact can be indirect. Some binding calls cover weakened binding; strength is not graded here. Where a sequence is shown, tags or fusion partners need not be part of it.

For this assay, the target named is FLAG-tagged TrkB (UniProt Q16620). The assay can be described thus: co-IP; HEK-293 cells transfected with FLAG-tagged TrkB and HA-tagged SLITRK5 alleles; resting condition.
In the case of B1, the binding entry is “binds”.
For B2, the binding result is listed as “binds”.
The result for B3 reads “binds”; that for B4, “binds”; that for B5, “binds”.
The result for B6 reads “binds”.

The record behind these values is PMC5234816.
